Values quoted from earlier work as cited in US7908091B2, “Methods of predicting and monitoring tyrosine kinase inhibitor therapy” (Prometheus Laboratories Inc., priority 2006, dated 2011).
At least one compound was matched to its structure with a doubt left.

Test system: metastatic kidney cancer
Conditions: in vivo; cited from earlier work

CCN(CC)CCNC(=O)c1c(C)[nH]c(/C=C2\C(=O)Nc3ccc(F)cc32)c1C [sunitinib]
patients with a partial response: 33% | patients with stable disease for longer than 3 months: 37%
